According to patent US10631557B2, “Preservative system for acidic beverages based on sequestrants” (PepsiCo, Inc., priority 2008, dated 2020):
At least one structure is not confirmed: it was looked up by name or label, or the drawing left a doubt.

System: mold spores
Assay: Hybrid hot-fill at 71.3° C. of 2% juice beverage (Example 31)
Format: cell-based
Conditions: 500-1500 ppm bis-phosphonate with weak acid preservative and 30 ppm EDDS (or EDTA)

CC(O)(P(=O)(O)O)P(=O)(O)O [Etridonate, (1-hydroxyethylidene)bis-phosphonate]
outgrowth of spores of spoilage fungi after hybrid hot-fill: prevent the outgrowth of spores
